Assay results as given in US20180147271A1.
Results are given in words; binding and its absence hold for the method and conditions named. Some binding calls cover weakened binding; strength is not graded here.

The chains behind the UniProt entries cited, without tags or fusion partners. Where a name states a change or a piece, a line headed by the entry shows the natural chain unless it says otherwise.
UniProt Q01973: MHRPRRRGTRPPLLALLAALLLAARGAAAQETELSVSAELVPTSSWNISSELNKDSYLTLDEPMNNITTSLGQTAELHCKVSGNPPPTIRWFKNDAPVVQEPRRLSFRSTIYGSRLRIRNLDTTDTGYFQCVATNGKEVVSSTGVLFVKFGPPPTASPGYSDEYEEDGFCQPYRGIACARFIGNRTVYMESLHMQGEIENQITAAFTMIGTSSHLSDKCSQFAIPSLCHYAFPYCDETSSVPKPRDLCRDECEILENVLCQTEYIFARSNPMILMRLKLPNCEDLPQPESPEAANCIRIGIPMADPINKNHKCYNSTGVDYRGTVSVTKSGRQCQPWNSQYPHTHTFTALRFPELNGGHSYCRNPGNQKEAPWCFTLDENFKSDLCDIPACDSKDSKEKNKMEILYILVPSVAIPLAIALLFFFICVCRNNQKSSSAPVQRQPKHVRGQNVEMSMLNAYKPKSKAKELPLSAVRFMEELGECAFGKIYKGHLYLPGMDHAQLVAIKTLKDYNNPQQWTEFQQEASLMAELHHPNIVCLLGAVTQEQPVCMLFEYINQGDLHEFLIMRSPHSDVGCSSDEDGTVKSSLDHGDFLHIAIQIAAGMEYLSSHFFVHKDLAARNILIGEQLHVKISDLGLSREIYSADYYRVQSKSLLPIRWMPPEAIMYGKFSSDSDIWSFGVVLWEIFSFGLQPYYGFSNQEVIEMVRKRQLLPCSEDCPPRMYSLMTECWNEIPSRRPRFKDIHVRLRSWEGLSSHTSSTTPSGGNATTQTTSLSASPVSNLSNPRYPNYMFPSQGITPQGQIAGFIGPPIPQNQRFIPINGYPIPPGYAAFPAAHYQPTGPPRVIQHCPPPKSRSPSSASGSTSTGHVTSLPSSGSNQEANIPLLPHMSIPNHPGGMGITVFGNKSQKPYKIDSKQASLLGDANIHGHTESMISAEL

What follows are binders tested against recombinant human ROR1-IgG1-Fc (human) (UniProt Q01973) (assay: flow cytometry; CAR T cells stained with recombinant human ROR1-IgG1-Fc and mouse anti-human IgG-PE).

binding	Binder
binds	anti-ROR1 CAR54 (scFv, V domains shown) VH: QVQLQESGPGLVKSSETLSLTCTVSGGSMNNYYWSWIRQPAGKGLEWMGRIYSSGSTNYNPALKSRVTMSVDTSKNQFSLNLSSVTAADTAIYYCARASWSGTYWALFDYWGQGTLVTVSS VL: ETTLTQSPAFMSATPGDKVNISCKASQDIDDDLNWYQQKPGEAPILIIQEATTLVPGIPPRFSGSGFGTDFTLTINSMQSEDVAYYFCLQHDNFPPTFGQGTKVEIKR
binds	anti-ROR1 CAR60 (scFv, V domains shown) VH: EVQLVQSGGDLVQPGGSLRLSCAASGFTFSSYSMNWVRQAPGKGLEWVSSISSSSSYIYYADSVKGRFTISRDNAKNSLYLQMNSLRAEDTAVYYCARGLGGWTHDAFDIWGQGTTVTVSS VL: QSALTQPASVSGSPGQSITISCTGTSSDVGGYNYVSWYQQHPGKAPKLMIYDVSKRPSGVSNRFSGSKSGNTASLTISGLQAEDEADYYCSSYTGRSTVFGGGTKLTVLG
binds	anti-ROR1 CAR45 (scFv, V domains shown) VH: QVQLQQSGAEVKKPGASVKVSCKASGYTFSRYYIHWVRRAPGQGLEWMGLINPGGGSTNYAQKFQGRVTMTRDTSTNTVYLELSSLRSDDTAVYYCARDYGTIDARRFDFWGQGTLVTVSS VL: QSALTQPPSASGTPGQRVTISCPGSSSNIGSNYVYWYQQLPGTAPKLLIYRNNQRPSGVPDRFSGSKSGTSATLGITGLQTGDEADYYCGTWDSSLSAYVFGTGTKVTVLG
binds	anti-ROR1 CAR50 (scFv, V domains shown) VH: QVQLVQSGAEVKEPGASVKVSCKASGYTFRNSGITWVRQAPGQGLEWMGWINPNSGGAMYVDNFQGRATMTRDTSINTAYMELRSLSSDDTAVYYCARGMADLIDVFDIWGQGTLVTVSS VL: TQPALTQPASVSGSPGQSITISCTGTSSDFGDYDYVSWYQQHPGKAPKLMIYDVSDRPSGVSNRFSGSKSGNTASLTISGLQAEDEADYFCSSFTTSSTLVFGGGTKLTVLG
binds	anti-ROR1 CAR53 (scFv, V domains shown) VH: QVTLKESGPTLLKPTQTLTLTCTFSGFSLSTRGVGVGWIRQPPGQALEWLTLIYWDDDKRYSPSLKSRLTITKDTSKNQVVLTMTNMESVDTATYYCAQQTMTGAFDIWGQGTTVTVSS VL: DIQMTQSPSSVSASVGDRVTITCRASQGISTLLAWYQQKPGKAPKLLISSASSLQSGVPARFSGSGSGTDFTLTISSLQPEDFATYYCQQSYRAPTFGQGTKVEIKR
